Measured values published in article PMC12463039.
Results are given in words; binding and its absence hold for the method and conditions named. In cells and extracts the contact can be indirect. Some results given as binding are weak or reduced against the parent protein; the word gives no strength.

Amino acid sequences for entries named in this document (tags omitted).
UniProt P06733: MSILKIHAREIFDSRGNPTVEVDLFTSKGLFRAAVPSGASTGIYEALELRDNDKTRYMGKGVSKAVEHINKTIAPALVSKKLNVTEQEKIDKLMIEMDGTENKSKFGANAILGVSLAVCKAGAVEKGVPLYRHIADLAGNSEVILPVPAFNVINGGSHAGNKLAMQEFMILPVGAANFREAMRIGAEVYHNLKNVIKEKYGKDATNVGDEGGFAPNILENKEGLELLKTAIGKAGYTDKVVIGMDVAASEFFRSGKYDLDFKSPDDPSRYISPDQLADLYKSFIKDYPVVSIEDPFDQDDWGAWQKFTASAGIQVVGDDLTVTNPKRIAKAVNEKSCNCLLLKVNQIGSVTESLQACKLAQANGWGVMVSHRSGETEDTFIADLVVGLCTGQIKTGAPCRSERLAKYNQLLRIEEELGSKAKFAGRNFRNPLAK
UniProt P46934: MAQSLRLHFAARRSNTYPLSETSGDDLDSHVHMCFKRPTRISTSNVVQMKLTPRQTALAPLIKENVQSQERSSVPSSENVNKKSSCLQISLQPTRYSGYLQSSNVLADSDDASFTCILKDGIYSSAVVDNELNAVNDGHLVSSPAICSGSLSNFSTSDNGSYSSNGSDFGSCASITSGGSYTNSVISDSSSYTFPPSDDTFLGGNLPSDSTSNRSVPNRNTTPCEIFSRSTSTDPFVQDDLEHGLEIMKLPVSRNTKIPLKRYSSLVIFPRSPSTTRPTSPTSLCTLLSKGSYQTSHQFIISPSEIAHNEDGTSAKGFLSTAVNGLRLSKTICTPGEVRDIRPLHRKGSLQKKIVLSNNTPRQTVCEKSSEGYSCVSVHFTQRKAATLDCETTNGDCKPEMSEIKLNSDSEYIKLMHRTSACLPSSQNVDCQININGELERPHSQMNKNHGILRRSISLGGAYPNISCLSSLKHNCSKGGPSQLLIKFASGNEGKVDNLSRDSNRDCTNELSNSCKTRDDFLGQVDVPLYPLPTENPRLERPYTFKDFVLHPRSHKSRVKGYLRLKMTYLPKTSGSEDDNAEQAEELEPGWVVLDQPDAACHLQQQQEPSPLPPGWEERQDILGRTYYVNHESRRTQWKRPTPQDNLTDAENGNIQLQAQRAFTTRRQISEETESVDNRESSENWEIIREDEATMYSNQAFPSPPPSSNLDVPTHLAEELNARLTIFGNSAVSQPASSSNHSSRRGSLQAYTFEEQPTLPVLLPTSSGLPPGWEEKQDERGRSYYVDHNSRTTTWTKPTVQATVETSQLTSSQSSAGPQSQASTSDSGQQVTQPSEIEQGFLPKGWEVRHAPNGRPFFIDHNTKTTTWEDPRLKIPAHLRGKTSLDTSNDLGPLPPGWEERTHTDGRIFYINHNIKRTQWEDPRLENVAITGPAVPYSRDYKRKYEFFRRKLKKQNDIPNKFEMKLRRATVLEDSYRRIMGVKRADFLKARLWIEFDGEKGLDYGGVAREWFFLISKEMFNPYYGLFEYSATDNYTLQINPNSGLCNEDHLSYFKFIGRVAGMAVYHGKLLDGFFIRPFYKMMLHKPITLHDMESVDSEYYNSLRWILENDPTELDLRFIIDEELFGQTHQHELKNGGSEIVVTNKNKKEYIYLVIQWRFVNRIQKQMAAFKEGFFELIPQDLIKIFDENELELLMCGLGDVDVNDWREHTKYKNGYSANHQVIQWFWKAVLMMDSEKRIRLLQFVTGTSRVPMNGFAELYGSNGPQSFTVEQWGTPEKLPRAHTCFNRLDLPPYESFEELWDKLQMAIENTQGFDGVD

Biological target: Enolase 1 (ENO1), endogenous in PASMCs (human (endogenous in primary human PASMCs)) (UniProt P06733)
Experiment: co-IP; PASMC lysates (RIPA buffer) incubated with IP antibodies against ENO1, NEDD4, FLAG or IgG (1:50) overnight at 4 °C, protein A/G beads 6 h at 4 °C; Western blot

binding: binds
Substance: E3 ubiquitin ligase NEDD4 (down regulated protein 4 in neural precursor cell development) (from UniProt P46934 1-1319) (enzyme)
